Assay results: publication PMC8860247
Results are given in words; binding and its absence hold for the method and conditions named. In cells and extracts the contact can be indirect. Binding calls can cover weak binding; strength is not graded here. Sequences can lack the tags named with a protein.

B1: IC-FLAG::NRFL-1 (protein, UniProt G5EDM4 1-467)
chain: MVHIPSDVTPPRLCVVEKLNGENEYGYNLHAEKGRGQFVGTVDPDSPAERGGLITGDRIFAVNGHSIIGENHKKVVERIKANPNRCEMLVISEEGAKWYNENNVQITLDLPNIERVSPMSKETPVFVPPPPPPTDAMPYLPRLAELNKGTPDQEFGFNLHAERGRGHFIGTVDAGGIGEKAGLEAGQRIVGVNGQLIYPTTGHKEVVALIKKDTMKTTLLVASEDVDKYHKDHNIAYSWDNVERVDTRPVINVETHHHHEEVSVPKSNGYDVPPLNPHSIQVNEEREISKMTTTTRTETITNSNSAYQYKESSTAYDAYATPPVDSNDLMDEVFGRVNLPGVTMSSHTEVLPPTDDISSVSSLSSHRESAVDVPVSHQYVPSYATESHQKHEQHSQTHHHHHQHQQPSPLSNGSSHGYAASSTSGYDDDDIYHLSAREARERLRMKNRKHHLHEMSLNEKYQLVSNM
B2: NRFL-1a::InteinC-3xFLAG-VC155 (protein, UniProt G5EDM4 1-467)
chain: B1 chain
B3: NRFL-1a(ΔEB)::InteinC-3xFLAG-VC155 (domain or fragment, UniProt G5EDM4 1-439)
chain: MVHIPSDVTPPRLCVVEKLNGENEYGYNLHAEKGRGQFVGTVDPDSPAERGGLITGDRIFAVNGHSIIGENHKKVVERIKANPNRCEMLVISEEGAKWYNENNVQITLDLPNIERVSPMSKETPVFVPPPPPPTDAMPYLPRLAELNKGTPDQEFGFNLHAERGRGHFIGTVDAGGIGEKAGLEAGQRIVGVNGQLIYPTTGHKEVVALIKKDTMKTTLLVASEDVDKYHKDHNIAYSWDNVERVDTRPVINVETHHHHEEVSVPKSNGYDVPPLNPHSIQVNEEREISKMTTTTRTETITNSNSAYQYKESSTAYDAYATPPVDSNDLMDEVFGRVNLPGVTMSSHTEVLPPTDDISSVSSLSSHRESAVDVPVSHQYVPSYATESHQKHEQHSQTHHHHHQHQQPSPLSNGSSHGYAASSTSGYDDDDIYHLSAREA

Key:
[1] = molecular target: ERM-1::V5::IN (C. elegans); assay: split intein-mediated protein ligation (SIMPL); bait fused to V5-IN and prey fused to IC-FLAG co-expressed ubiquitously in C. elegans; spliced high molecular weight band detected by anti-V5 and anti-FLAG western blot of lysates
[2] = molecular target: mKate2::ERM-1::VN155-HA-V5-InteinN (C. elegans); assay: split reporter; SIMPL-mVenus: split intein with split mVenus (VN155 on ERM-1, VC155 on NRFL-1) co-expressed in C. elegans; apical mVenus in intestinal cells imaged by spinning disk microscopy, as ratio over mKate2::ERM-1

binding [1]	binding [2]	Binder
binds	–	B1
–	binds	B2
–	binds weakly	B3
